Assay results taken from the supplement of paper PMC10849652.
Some of the results follow. Residues, ends and D or L forms follow the SMILES beside them. *: point of attachment. Cbz = O=C(OCc1ccccc1)*

Protein sequences, listed by entry. Tags and fused reporters are not part of them. Lines headed by an entry give the natural chain unless they say otherwise; changes in a name come on top.
UniProt Q9BUB5: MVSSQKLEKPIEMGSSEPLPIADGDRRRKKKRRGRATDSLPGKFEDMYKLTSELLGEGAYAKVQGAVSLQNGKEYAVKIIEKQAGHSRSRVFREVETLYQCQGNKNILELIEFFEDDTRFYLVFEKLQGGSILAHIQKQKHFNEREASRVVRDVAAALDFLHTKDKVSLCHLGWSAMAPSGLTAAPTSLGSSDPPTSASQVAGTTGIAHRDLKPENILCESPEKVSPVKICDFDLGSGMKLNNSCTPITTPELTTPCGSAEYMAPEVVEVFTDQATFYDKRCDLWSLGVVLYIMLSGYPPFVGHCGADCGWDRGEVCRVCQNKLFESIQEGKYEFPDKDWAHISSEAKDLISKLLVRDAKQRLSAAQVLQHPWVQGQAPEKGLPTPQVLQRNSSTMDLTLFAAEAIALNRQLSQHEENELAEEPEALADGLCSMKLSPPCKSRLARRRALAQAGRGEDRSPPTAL
UniProt Q9UH92: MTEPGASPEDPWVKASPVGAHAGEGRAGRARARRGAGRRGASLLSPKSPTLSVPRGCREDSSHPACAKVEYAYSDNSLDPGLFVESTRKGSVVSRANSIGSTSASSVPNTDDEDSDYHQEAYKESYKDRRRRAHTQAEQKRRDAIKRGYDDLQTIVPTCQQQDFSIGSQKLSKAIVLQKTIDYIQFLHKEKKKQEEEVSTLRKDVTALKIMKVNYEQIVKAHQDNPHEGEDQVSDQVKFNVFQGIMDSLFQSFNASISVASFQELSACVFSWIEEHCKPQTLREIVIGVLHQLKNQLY
UniProt Q96T76: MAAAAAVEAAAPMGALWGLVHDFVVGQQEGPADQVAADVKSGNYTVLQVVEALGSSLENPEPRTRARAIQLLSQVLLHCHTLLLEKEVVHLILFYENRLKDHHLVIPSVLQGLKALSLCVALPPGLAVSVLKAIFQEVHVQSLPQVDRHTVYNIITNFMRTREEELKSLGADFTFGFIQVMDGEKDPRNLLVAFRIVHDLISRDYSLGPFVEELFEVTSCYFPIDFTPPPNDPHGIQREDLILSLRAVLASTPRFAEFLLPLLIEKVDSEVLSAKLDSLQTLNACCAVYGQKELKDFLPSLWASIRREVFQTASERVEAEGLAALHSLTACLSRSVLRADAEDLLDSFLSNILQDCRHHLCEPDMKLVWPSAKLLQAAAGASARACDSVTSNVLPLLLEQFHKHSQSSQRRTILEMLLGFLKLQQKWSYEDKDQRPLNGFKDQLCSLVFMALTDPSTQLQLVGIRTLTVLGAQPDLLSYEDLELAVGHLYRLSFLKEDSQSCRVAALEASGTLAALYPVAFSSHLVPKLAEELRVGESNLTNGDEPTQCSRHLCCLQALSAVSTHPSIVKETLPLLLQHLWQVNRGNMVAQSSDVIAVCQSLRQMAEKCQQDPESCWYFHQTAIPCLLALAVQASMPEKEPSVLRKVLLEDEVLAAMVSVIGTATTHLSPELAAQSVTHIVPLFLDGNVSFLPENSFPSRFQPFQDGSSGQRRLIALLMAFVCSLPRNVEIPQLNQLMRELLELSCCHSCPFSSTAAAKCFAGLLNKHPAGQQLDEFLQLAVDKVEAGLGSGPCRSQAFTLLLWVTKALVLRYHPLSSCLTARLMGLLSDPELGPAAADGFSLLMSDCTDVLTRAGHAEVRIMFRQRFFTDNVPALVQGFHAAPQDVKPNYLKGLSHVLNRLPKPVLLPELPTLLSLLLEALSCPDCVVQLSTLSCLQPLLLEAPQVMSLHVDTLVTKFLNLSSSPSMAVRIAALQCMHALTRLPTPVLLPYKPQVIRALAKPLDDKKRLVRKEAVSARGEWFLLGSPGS
UniProt Q8IYU8: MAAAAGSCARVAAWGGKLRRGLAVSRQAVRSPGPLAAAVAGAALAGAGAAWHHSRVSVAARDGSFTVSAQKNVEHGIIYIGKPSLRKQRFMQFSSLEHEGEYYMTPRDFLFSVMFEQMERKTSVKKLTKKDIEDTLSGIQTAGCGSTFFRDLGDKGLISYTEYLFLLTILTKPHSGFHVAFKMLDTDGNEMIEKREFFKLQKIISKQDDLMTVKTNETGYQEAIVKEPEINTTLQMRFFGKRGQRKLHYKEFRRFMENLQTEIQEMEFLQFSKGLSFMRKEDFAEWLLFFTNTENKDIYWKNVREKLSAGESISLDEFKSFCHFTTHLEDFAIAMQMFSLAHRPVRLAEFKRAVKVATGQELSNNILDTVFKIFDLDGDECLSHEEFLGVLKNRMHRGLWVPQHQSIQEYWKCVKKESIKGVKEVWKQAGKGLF
UniProt O00566: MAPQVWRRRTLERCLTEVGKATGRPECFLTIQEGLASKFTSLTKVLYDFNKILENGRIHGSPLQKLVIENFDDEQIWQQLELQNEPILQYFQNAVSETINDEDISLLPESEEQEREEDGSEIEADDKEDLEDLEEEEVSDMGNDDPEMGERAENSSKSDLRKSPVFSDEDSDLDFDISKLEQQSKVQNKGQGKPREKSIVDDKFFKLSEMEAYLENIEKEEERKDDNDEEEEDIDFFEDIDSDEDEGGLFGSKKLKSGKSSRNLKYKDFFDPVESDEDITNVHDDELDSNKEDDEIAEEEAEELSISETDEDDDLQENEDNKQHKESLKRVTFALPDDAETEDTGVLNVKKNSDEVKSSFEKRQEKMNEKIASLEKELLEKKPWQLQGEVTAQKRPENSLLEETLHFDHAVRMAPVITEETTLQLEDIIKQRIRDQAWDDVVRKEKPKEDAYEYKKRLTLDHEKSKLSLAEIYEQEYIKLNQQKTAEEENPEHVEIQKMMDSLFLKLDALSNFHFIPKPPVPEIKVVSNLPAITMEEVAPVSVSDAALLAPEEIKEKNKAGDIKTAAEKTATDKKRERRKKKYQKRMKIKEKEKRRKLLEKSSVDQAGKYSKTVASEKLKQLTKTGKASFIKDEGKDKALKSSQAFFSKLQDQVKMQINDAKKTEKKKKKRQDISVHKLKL
UniProt P14174: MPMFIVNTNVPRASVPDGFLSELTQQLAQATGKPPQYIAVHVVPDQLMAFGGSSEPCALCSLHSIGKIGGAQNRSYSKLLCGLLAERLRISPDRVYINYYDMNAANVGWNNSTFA
UniProt Q9UBU8, whole entry, looked up: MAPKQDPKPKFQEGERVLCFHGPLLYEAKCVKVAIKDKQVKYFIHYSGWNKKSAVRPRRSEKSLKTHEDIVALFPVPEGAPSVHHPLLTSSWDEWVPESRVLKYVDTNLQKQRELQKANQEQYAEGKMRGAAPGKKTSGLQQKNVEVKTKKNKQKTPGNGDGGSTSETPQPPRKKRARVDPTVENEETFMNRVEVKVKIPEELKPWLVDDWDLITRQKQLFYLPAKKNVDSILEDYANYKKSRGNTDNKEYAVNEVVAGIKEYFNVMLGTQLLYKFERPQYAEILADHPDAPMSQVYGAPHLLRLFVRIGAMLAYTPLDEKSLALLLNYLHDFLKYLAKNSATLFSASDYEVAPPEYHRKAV
UniProt Q8IVH4: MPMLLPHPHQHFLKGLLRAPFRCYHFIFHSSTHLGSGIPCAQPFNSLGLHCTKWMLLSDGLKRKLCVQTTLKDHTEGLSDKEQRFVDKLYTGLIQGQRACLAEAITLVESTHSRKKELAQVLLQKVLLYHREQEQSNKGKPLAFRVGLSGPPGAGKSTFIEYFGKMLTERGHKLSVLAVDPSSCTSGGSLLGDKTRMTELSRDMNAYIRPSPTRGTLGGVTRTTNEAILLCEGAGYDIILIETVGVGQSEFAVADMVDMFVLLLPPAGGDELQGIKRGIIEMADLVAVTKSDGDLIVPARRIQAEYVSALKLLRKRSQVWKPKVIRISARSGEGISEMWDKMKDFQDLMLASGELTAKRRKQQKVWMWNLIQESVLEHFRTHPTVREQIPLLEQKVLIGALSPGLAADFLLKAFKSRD
UniProt P39210: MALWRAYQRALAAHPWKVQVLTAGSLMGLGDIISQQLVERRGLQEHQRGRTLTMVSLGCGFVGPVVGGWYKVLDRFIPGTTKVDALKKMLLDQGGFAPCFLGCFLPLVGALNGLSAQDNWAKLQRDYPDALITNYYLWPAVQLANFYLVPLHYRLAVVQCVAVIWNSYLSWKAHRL
UniProt Q9UHC7: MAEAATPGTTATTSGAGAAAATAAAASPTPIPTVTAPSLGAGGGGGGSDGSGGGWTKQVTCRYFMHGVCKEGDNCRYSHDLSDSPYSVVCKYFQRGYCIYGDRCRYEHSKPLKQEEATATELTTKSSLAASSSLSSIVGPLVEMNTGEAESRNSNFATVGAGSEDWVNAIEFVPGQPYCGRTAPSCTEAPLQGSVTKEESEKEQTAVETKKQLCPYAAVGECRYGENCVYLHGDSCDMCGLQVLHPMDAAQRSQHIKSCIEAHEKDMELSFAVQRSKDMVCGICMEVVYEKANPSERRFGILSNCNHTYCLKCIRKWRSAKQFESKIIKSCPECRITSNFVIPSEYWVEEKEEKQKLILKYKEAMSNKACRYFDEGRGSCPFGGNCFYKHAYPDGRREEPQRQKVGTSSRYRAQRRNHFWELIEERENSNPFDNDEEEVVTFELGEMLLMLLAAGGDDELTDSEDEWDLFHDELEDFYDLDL
UniProt O96033: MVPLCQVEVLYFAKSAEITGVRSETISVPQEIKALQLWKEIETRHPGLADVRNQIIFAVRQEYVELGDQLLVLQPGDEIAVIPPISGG
UniProt Q95460, whole entry, looked up: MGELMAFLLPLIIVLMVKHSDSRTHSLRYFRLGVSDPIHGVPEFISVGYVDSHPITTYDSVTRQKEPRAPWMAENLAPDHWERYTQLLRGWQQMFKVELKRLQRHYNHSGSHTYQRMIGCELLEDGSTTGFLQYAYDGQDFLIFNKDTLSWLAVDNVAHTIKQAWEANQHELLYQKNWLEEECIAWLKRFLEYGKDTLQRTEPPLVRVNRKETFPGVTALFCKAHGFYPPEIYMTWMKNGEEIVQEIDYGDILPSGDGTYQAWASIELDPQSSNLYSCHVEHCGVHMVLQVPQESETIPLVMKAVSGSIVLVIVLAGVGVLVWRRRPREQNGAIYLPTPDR
UniProt Q9Y5U8: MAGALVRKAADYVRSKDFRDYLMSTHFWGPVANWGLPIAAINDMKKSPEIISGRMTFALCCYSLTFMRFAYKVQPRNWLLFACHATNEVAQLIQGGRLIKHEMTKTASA
UniProt Q8N3F8: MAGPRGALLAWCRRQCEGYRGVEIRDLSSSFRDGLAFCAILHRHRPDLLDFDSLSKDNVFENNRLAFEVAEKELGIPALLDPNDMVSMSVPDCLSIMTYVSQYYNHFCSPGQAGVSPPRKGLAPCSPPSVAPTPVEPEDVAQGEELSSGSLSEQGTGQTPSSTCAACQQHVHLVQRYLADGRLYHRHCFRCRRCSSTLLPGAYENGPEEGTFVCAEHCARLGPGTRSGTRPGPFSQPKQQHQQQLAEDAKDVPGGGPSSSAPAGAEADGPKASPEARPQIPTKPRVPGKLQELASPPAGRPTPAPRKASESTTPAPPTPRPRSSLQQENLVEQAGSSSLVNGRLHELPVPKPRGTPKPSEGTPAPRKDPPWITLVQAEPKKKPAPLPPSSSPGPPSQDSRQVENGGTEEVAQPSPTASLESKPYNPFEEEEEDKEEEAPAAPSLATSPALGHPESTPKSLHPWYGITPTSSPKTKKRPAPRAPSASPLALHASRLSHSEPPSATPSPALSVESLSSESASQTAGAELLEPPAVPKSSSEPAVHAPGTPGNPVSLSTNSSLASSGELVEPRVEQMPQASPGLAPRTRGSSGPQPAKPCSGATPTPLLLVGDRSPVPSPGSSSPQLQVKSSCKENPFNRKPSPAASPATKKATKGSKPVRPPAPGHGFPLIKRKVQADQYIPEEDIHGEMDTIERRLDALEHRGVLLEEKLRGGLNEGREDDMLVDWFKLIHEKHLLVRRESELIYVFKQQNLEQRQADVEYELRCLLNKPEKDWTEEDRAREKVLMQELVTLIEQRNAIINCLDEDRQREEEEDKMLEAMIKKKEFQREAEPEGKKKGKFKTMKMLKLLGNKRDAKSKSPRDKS
UniProt Q9NPA3, whole entry, looked up: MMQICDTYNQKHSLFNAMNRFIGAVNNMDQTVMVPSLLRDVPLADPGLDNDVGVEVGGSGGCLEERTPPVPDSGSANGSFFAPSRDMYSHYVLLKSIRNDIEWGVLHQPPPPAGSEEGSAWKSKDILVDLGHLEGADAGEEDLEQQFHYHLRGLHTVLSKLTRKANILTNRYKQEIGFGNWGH
UniProt Q13064: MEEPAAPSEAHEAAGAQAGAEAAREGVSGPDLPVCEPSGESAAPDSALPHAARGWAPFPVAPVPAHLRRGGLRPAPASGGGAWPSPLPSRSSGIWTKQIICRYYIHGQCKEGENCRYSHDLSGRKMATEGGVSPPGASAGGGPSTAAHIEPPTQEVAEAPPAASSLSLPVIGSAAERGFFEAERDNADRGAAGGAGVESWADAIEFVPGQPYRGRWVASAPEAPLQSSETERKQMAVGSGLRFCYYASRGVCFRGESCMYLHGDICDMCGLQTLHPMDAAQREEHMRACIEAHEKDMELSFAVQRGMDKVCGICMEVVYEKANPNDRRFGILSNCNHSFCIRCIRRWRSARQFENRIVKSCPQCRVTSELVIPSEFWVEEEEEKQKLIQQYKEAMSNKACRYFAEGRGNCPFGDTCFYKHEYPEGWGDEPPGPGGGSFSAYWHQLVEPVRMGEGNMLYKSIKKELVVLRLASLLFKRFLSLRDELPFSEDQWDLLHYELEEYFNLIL

What was measured:
Assay in all cases: log2 fold change, soluble protein after heating vs DMSO (PISA); higher = thermal stabilisation; K562 cells, 10 uM, 30 min; active = over 0.2 and 3.5 SD of the protein, either way, in both replicates (recomputed)
IRAK-1-4 Inhibitor I = compound: C1COCCN1CCN2C3=CC=CC=C3N=C2NC(=O)C4=CC(=CC=C4)[N+](=O)[O-] [IRAK-1-4 Inhibitor I]
Summary of the method: (§1)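 Soluble protein was quantified by TMTpro 16plex LC-MS/MS after channel sums were equalised. It was obtained as the supernatant after 21,000xg for 90 min from pooled aliquots of K562 cells (2×10^6 cells/mL, 10 μM compound, 30 min) heated for 3 min across 48°C-58°C and extracted in PBS with 0.5% NP-40 at 4°C. Thermal stability values are relative to control samples and come from duplicates. They are given as log2 fold changes.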

ibrutinib = compound: C=CC(=O)N1CCC[C@@H](n2nc(-c3ccc(Oc4ccccc4)cc3)c3c(N)ncnc32)C1 [ibrutinib]
Summary of the method: as §1

[1] = compound: CC(=O)c1cnc2ccc(-c3cc(Cl)c(O)c(Cl)c3)nc2c1N[C@H]1CC[C@H](CN(C)C)CC1
Summary of the method: as §1

ralimetinib = compound: CC(C)(C)Cn1c(N)nc2ccc(-c3[nH]c(C(C)(C)C)nc3-c3ccc(F)cc3)nc21 [ralimetinib]
Summary of the method: as §1

[2] = compound: CC(C)(O)CC(=O)NCCn1ccc2ncnc(Nc3ccc(Oc4cccc(C(F)(F)F)c4)c(Cl)c3)c21
Summary of the method: as §1

[3] = compound: CC(C)C1=C2N=C(C=C(N2N=C1)NCC3=CC=CC=C3)NCCCCCCN
Summary of the method: as §1

[4] = compound: CC(C)C[C@@H](C=O)NC(=O)[C@H](CC(C)C)NC(=O)[C@H](CC(C)C)NC(=O)OCc1ccccc1
Summary of the method: as §1

pinometostat = compound: CC(C)N(C[C@H]1O[C@@H](n2cnc3c(N)ncnc32)[C@H](O)[C@@H]1O)[C@H]1C[C@@H](CCc2nc3cc(C(C)(C)C)ccc3[nH]2)C1 [pinometostat]
Summary of the method: as §1

[5] = compound: CC1=C(C2=C(C=C1)C(=O)C3=CC=CC=C3N2CCCN)C
Summary of the method: as §1

[6] = compound: CC1=C(C(CC(=O)N1)C2=CC=C(C=C2)C(F)(F)F)C(=O)NC3=C(C=C4C(=C3)C=NN4)F
Summary of the method: as §1

Measured: log2 fold change

MRPL47 (UniProt Q9HD33)
inactive: IRAK-1-4 Inhibitor I -0.11 | ibrutinib 0.022 | [1] 0.003 | ralimetinib 0.056 | [2] 0.016 | [3] -0.001 | [4] 0.071 | pinometostat 0.181 | [5] -0.083

MIEF1 (UniProt L0R8F8)
inactive: IRAK-1-4 Inhibitor I 0.071 | ibrutinib 0.065 | [1] 0.022 | ralimetinib -0.004 | [2] 0.011 | [3] -0.021 | [4] -0.053 | pinometostat -0.005 | [5] -0.004

MKNK1 (UniProt Q9BUB5)
inactive: IRAK-1-4 Inhibitor I -0.078 | ibrutinib -0.034 | [1] 0.059 | ralimetinib 0.117 | [2] -0.032 | [3] -0.065 | [4] 0.168 | pinometostat -0.019 | [5] 0.057

MITD1 (UniProt Q8WV92)
inactive: IRAK-1-4 Inhibitor I -0.043 | ibrutinib 0.03 | [1] 0 | ralimetinib -0.002 | [2] -0.296 | [4] -0.002 | pinometostat 0.082 | [5] 0.047
active: [3] -0.77

MLX (UniProt Q9UH92)
inactive: IRAK-1-4 Inhibitor I -0.033 | ibrutinib -0.058 | [1] -0.132 | ralimetinib 0.077 | [2] -0.163 | [3] -0.236 | [4] 0.14 | pinometostat 0.016 | [5] -0.008

MORF4L2 (UniProt Q15014)
inactive: IRAK-1-4 Inhibitor I -0.116 | ibrutinib 0.04 | [1] 0.047 | ralimetinib -0.01 | [2] 0.039 | [3] 0.052 | [4] 0.271 | pinometostat 0.092 | [5] 0.005

MMS19 isoform 8 (UniProt Q96T76)
inactive: IRAK-1-4 Inhibitor I -0.141 | ibrutinib -0.029 | [1] -0.028 | ralimetinib 0.078 | [2] -0.082 | [3] -0.216 | [4] 0.006 | pinometostat 0.084 | [5] 0.011

MRPL50 (UniProt Q8N5N7)
inactive: IRAK-1-4 Inhibitor I -0.036 | ibrutinib 0.052 | [1] 0.036 | ralimetinib 0.315 | [2] -0.001 | [3] -0.014 | [4] -0.203 | pinometostat -0.01 | [5] 0.16

MRPL42 (UniProt Q9Y6G3)
inactive: IRAK-1-4 Inhibitor I -0.073 | ibrutinib 0.143 | [1] -0.045 | ralimetinib 0.057 | [2] 0.151 | [4] 0.221 | pinometostat 0.044 | [6] -0.031 | [5] 0.001

MRPL51 (UniProt Q4U2R6)
inactive: IRAK-1-4 Inhibitor I -0.091 | ibrutinib 0.025 | [1] 0.124 | ralimetinib 0.036 | [2] 0.037 | [3] -0.229 | [4] 0.127 | pinometostat 0.139 | [6] 0.159 | [5] -0.154

MICB, A0A140T979
inactive: IRAK-1-4 Inhibitor I 0.014 | ibrutinib 0.092 | [1] -0.1 | ralimetinib 0.015 | [2] -0.027 | [3] 0.091 | [4] 0.11 | pinometostat -0.017 | [6] -0.002 | [5] 0.036

MICU2 (UniProt Q8IYU8)
inactive: IRAK-1-4 Inhibitor I -0.039 | ibrutinib -0.001 | [1] -0.026 | ralimetinib -0.05 | [2] -0.12 | [3] -0.292 | [4] 0.128 | pinometostat 0.211 | [5] 0.136

MKI67 (UniProt P46013)
inactive: IRAK-1-4 Inhibitor I -0.026 | ibrutinib -0.036 | [1] -0.08 | ralimetinib 0.038 | [2] 0.015 | [3] -0.161 | [4] -0.042 | pinometostat 0.074 | [6] 0.117 | [5] 0.129

MPHOSPH10 (UniProt O00566)
inactive: IRAK-1-4 Inhibitor I -0.215 | ibrutinib -0.022 | [1] -0.064 | ralimetinib 0.144 | [2] 0.089 | [3] -0.071 | [4] 0.053 | pinometostat 0.113 | [5] -0.56

MIF (UniProt P14174)
inactive: IRAK-1-4 Inhibitor I 0.017 | ibrutinib 0.039 | [1] -0.014 | ralimetinib 0.071 | [2] -0.119 | [3] 0.052 | [4] 0.04 | pinometostat -0.043 | [5] 0.133

MICU1 isoform 3 (UniProt Q9BPX6)
inactive: IRAK-1-4 Inhibitor I 0 | ibrutinib -0.009 | [1] -0.025 | ralimetinib 0.007 | [2] -0.016 | [4] 0.08 | pinometostat 0.076 | [5] 0.09
active: [3] -0.285

MORF4L1 isoform 2 (UniProt Q9UBU8)
inactive: IRAK-1-4 Inhibitor I -0.001 | ibrutinib 0.008 | [1] -0.01 | ralimetinib -0.006 | [2] -0.102 | [3] 0.013 | [4] 0.151 | pinometostat 0.062 | [6] -0.013 | [5] -0.018

MON2 isoform 5 (UniProt Q7Z3U7)
inactive: IRAK-1-4 Inhibitor I 0.013 | ibrutinib -0.036 | [1] -0.005 | ralimetinib 0.097 | [2] -0.076 | [3] -0.088 | [4] 0.004 | pinometostat 0.048 | [5] 0.055

MMAA (UniProt Q8IVH4)
inactive: [1] -0.054 | [2] 0.035 | [3] 0.041

MPV17 (UniProt P39210)
inactive: ibrutinib -0.023 | [1] -0.038 | ralimetinib 0.008 | [2] -0.127 | [3] -0.088 | [4] -0.097 | [6] -0.009 | [5] 0.103

MINDY4 (UniProt Q4G0A6)
inactive: ralimetinib 0.165 | [4] 0.145

MRAS (UniProt O14807)
inactive: IRAK-1-4 Inhibitor I 0.084 | ibrutinib 0.053 | [3] -0.03 | pinometostat -0.046 | [6] 0.022

MLH1 (UniProt P40692)
inactive: ibrutinib -0.018 | [1] -0.112 | [2] -0.347 | [5] 0.008

MKRN1 (UniProt Q9UHC7)
inactive: IRAK-1-4 Inhibitor I -0.202 | ibrutinib 0.09 | ralimetinib 0.063 | [2] 0.161 | [3] 0.049 | [4] 0.242 | pinometostat -0.058 | [6] -0.048 | [5] -0.163

MOCS2 (UniProt O96033)
inactive: [1] 0.082 | [3] -0.138 | [5] 0.01

MITF (UniProt O75030)
inactive: IRAK-1-4 Inhibitor I 0.166 | [1] -0.212 | pinometostat 0.074
active: [3] -0.581

MR1 (UniProt Q95460)
inactive: IRAK-1-4 Inhibitor I 0.051 | [2] 0.052 | [3] -0.099 | pinometostat 0.053

MPZL1 isoform 3 (UniProt O95297)
inactive: [1] -0.045 | [5] 0.354

MORC2 (UniProt Q9Y6X9)
inactive: IRAK-1-4 Inhibitor I -0.292 | ibrutinib 0.042 | [1] -0.201 | [2] -0.074 | [3] -0.084 | pinometostat 0.038

MME (UniProt P08473)
inactive: ibrutinib -0.076 | [3] 0.055

MON1A (UniProt Q86VX9)
inactive: IRAK-1-4 Inhibitor I -0.005 | ibrutinib 0.231 | ralimetinib -0.213 | [2] -0.012 | [3] -0.151 | [4] 0.032 | pinometostat 0.002 | [5] 0.129

MICA (UniProt Q29983)
inactive: ibrutinib 0.075 | [1] 0.021 | ralimetinib -0.045 | [3] 0.029 | [4] 0.189 | [5] -0.042

MRPL18 (UniProt Q9H0U6)
inactive: IRAK-1-4 Inhibitor I -0.182 | ibrutinib 0.021 | ralimetinib 0.268 | [2] 0.06 | [3] -0.028 | [4] 0.054 | pinometostat 0.069 | [6] 0.068 | [5] -0.13

MPC1 (UniProt Q9Y5U8)
inactive: ibrutinib 0.36 | [1] 0.188 | ralimetinib 0.065 | [3] 0.087 | [4] -0.144 | [6] 0.189 | [5] -0.005

MIER2 (UniProt Q8N344)
inactive: [1] -0.029 | [2] 0.277 | [3] 0.07

MRM2 (UniProt Q9UI43)
inactive: [1] -0.119 | [3] -0.075 | [5] 0.104

MICALL1 (UniProt Q8N3F8)
inactive: IRAK-1-4 Inhibitor I 0.006 | [1] -0.028 | ralimetinib -0.227 | [2] 0.09 | [3] 0.03 | [4] 0.003 | pinometostat 0.002 | [6] -0.147 | [5] -0.043

MKKS (UniProt Q9HB66)
inactive: ibrutinib 0.009 | [1] -0.091 | [2] -0.053 | [3] 0.084 | [6] 0.053 | [5] -0.061

MOSPD1 isoform 3 (UniProt Q9UJG1)
inactive: [3] 0.198 | [6] 0.174

MID1IP1 (UniProt Q9NPA3)
inactive: IRAK-1-4 Inhibitor I -0.134 | ibrutinib -0.007 | ralimetinib -0.022 | [2] -0.254 | [3] -0.039 | [4] 0.17 | pinometostat 0.041 | [6] -0.022 | [5] 0.048

Quoted from the entries so far (2 entries):
MKKS (UniProt Q9HB66)
inactive: ibrutinib 0.009 | [1] -0.091 | [2] -0.053 | [3] 0.084 | [6] 0.053 | [5] -0.061

MOSPD1 isoform 3 (UniProt Q9UJG1)
inactive: [3] 0.198 | [6] 0.174

Next part

MKRN3 (UniProt Q13064)
inactive: IRAK-1-4 Inhibitor I 0.052 | [1] -0.259 | ralimetinib -0.05 | [2] 0.015 | [3] 0.25 | [4] -0.175 | pinometostat -0.078 | [6] 0.075 | [5] -0.108
